Measured values: patent publication US20210047432A1
Results are given in words; binding and its absence hold for the method and conditions named. Some binding calls cover weakened binding; strength is not graded here.

Amino acid sequences for entries named in this document (tags omitted). A change or cut given only in a name is not applied to a line headed by its entry. Chains listed by the source or under a name are the forms on record and can include a tag or linker. Residues count along the entry.
UniProt P12314, residues 16-374: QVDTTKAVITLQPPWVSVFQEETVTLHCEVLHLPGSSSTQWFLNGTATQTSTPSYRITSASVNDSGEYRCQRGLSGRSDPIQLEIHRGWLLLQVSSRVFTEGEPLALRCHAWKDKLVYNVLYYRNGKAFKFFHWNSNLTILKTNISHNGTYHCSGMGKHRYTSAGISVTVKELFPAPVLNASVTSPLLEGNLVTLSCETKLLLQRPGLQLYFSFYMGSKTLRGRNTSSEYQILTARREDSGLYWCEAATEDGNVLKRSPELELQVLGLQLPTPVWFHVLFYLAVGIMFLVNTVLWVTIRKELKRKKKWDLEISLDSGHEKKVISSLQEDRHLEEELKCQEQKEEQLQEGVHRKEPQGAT
human FcγRIIA (H131) (P12318, residues 34-317): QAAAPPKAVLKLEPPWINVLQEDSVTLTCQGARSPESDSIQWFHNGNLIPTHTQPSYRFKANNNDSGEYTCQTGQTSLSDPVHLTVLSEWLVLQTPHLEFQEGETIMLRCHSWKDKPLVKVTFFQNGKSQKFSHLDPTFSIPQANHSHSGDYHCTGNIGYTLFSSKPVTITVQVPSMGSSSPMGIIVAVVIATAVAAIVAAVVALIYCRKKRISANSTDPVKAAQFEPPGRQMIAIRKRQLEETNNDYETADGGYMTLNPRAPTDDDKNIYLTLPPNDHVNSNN
human FcγRIIA(R131) (P12318, form named): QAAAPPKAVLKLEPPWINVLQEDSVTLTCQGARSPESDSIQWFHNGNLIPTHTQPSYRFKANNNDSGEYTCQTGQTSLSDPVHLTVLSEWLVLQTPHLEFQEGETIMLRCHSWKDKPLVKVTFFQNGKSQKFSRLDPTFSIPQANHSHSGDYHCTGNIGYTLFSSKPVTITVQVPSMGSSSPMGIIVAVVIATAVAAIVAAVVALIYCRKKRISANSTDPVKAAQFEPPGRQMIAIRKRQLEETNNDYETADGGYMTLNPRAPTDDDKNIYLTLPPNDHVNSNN
human FcγRIIIA(F176) (P08637, residues 17-254): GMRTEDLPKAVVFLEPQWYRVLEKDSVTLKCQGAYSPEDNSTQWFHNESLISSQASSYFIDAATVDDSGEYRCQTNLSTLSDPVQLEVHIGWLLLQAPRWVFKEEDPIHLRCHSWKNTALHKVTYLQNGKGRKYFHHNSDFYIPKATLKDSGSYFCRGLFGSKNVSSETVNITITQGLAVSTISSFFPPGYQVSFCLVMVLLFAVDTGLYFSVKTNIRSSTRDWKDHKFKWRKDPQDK
human FcγRIIIA(V176) (P08637, form named): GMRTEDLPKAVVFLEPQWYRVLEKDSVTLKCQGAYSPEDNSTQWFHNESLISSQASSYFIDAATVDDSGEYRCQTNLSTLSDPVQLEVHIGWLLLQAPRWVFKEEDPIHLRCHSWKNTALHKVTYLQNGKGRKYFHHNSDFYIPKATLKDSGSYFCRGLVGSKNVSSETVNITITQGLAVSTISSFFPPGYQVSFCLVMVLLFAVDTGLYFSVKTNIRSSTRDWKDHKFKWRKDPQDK
human FcγRIIIB(NA1) (O75015, form named): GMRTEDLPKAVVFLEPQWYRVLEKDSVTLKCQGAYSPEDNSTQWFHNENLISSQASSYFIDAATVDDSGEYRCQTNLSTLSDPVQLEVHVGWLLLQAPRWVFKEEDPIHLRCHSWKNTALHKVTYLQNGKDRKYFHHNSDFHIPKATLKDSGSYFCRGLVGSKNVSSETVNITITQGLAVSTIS
human FcγRIIIB(NA2) (O75015, form named): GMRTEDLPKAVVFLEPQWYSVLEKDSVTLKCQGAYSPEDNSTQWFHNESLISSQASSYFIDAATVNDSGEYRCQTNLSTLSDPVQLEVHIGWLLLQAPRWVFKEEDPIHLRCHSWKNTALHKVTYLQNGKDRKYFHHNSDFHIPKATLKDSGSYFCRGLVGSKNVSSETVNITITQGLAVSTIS
human FcγRIIIB(SH) (O75015, form named): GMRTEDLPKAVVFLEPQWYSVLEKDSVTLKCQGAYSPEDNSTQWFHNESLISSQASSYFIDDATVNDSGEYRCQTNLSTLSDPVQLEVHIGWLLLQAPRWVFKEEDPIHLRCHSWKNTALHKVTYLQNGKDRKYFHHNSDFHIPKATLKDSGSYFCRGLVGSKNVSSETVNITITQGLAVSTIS
UniProt P04054: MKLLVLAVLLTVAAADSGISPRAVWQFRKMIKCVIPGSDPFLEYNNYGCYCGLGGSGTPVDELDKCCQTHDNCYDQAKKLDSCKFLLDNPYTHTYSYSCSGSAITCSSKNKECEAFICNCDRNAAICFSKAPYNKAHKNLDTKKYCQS

Experiments:
Assay in all cases: flow cytometry, antibody-antigen immune complex on CHO cells expressing the receptor
human FcγRI (human) = human FcγRI (human) (UniProt P12314)
[1] = target: human FcγRIIA (H131) (human) (UniProt P12318)
[2] = target: human FcγRIIA(R131) (human) (UniProt P12318)
[3] = target: human FcγRIIIA(F176) (human) (UniProt P08637)
[4] = target: human FcγRIIIA(V176) (human) (UniProt P08637)
[5] = target: human FcγRIIIB(NA1) (human) (UniProt O75015)
[6] = target: human FcγRIIIB(NA2) (human) (UniProt O75015)
[7] = target: human FcγRIIIB(SH) (human) (UniProt O75015)

Measured: binding

immune complex of #2B with sPLA2-GIB (from UniProt P04054 23-148)
binds: all assays above
